# Measurements taken from PubChem BioAssay AID504444 (National Center for Advancing Translational Sciences (NCATS), 2011).
# Among all 360,000 compounds or so, about 7,500 (2.1%) were called active. The inconclusive results got no clear call from the source; some entries with a clear call stand among them for comparison. Calls follow the shape of the dose curve; as a rule, active = well fitted inhibition curve with a large enough effect; inconclusive = small, poorly fitted or top-dose-only effect, or effect the other way; inactive = flat fitted curve, though single readings scatter. A potency beside an inconclusive call is a rough fit, not a confirmed value.
# Test: Nrf2 qHTS screen for inhibitors; also: nearly all actives have a fitted effect of over 60% in size
# Details: A549 ARE-Fluc reporter, luciferase luminescence, 18-24 h; series mostly up to 46 µM
# In short: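 Two sequential reads on A549 ARE_Fluc cells exposed to compound for 18-24 h: a CellTiter-Fluor fluorescence read for viability, then a luciferase luminescence read for Nrf2/ARE activity.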
# Potency is read from the fitted curve at half-maximal effect.
row,SMILES,Potency
1,O=C(/C=C/c1ccc(Cl)cc1Cl)NCc1ccncc1,"inconclusive: 18.4 µM [falling, single point]"
2,COc1ccc(-c2csc(NC(=O)c3ccccc3F)n2)cc1,inactive
3,CC(=O)O[C@]1(C(C)=O)CC[C@H]2[C@@H]3C=C(Cl)C4=CC(=O)[C@@H]5C[C@@H]5[C@]4(C)[C@H]3CC[C@@]21C,"inconclusive: 18.4 µM [falling, single point]"
4,Cc1ccc(-n2nc3c(=O)n(C(C)C(=O)NCCc4cccs4)nc(C)c3c2C)cc1 (centres undefined),active: 11.6 µM
5,COc1ccc(Br)cc1[C@H]1[C@@H]2C=CCC[C@@]2(C)C(=O)N1Cc1ccccc1,"inconclusive: 7.31 µM [falling, partial curve, poor fit]"
6,CCOc1ccc(N=CC2=C(O)CC(C)(C)CC2=O)cc1,"inconclusive: 6.51 µM [falling, single point]"
7,CCOc1ccc(C(C)=O)cc1COC(=O)c1ccc2c(c1)NC(=O)CS2,"inconclusive: 20.6 µM [falling, single point]"
8,CCOC(=O)C(Sc1nn(C)c(=S)s1)C(C)=O (centres undefined),"inconclusive: 23.1 µM [falling, single point]"
9,COc1ccc(CC(=O)Nc2ncc([N+](=O)[O-])s2)cc1OC,inactive
10,CC(=O)Nc1ccc(Nc2nc(-c3sc(C)nc3C)cs2)cc1,"inconclusive: 14.6 µM [falling, partial curve, poor fit]"
11,COC(=O)[C@]1(Cc2ccccc2)N[C@H](c2ccc(-c3cc(C(C)=O)cs3)cc2)[C@@H]2C(=O)N(C)C(=O)[C@@H]21,"inconclusive: 20.6 µM [falling, single point]"
12,Cc1occc1C(=O)N/N=C/c1ccccc1[N+](=O)[O-],"inconclusive: 10.3 µM [activator, partial curve, poor fit]"
13,O=C(NCC(c1cccnc1)N1CCc2ccccc2C1)C(=O)Nc1ccccc1F (centres undefined),"inconclusive: 10.3 µM [activator, partial curve]"
14,CCn1c(COc2ccccc2Cl)nnc1SCC(=O)Nc1ncccc1C,"inconclusive: 0.0366 µM [falling, full curve, poor fit]"
15,CCOc1cc(C(=O)NCC(C)(C)CNC(=O)c2cc(OCC)c(OCC)c(OCC)c2)cc(OCC)c1OCC,"inconclusive: 16.4 µM [falling, single point]"
16,Cc1ccccc1OCC(=O)Nc1ccc(NC(=O)c2ccco2)cc1,"inconclusive: 25.9 µM [falling, single point]"
17,CSc1nnc2c(n1)c(C)nn2-c1cccc(C)c1,"inconclusive: 16.4 µM [activator, partial curve, poor fit]"
18,CC(C)CN=CC1=C(O)c2ccccc2C1=O,"inconclusive: 9.2 µM [activator, partial curve]"
19,O=C(Nc1ccccc1)N1CCCN(c2c(Cl)cncc2Cl)CC1,"inconclusive: 20.6 µM [falling, partial curve, poor fit]"
20,Cc1csc2ncc(C(=O)NCc3ccco3)c(=O)n12,inactive
21,CCc1ccc(NS(=O)(=O)c2ccc3[nH]cc(C(=O)N4CCc5ccccc54)c(=O)c3c2)cc1,"inconclusive: 18.4 µM [activator, single point]"
22,Cc1ccc2nc(N3CCN(C(=O)c4cccs4)CC3)c(C#N)cc2c1,"inconclusive: 25.9 µM [falling, partial curve, poor fit]"

# Individual results from above:
# Entry for CC(=O)O[C@]1(C(C)=O)CC[C@H]2[C@@H]3C=C(Cl)C4=CC(=O)[C@@H]5C[C@@H]5[C@]4(C)[C@H]3CC[C@@]21C under Potency: inconclusive: 18.4 µM [falling, single point]
# Entry for CSc1nnc2c(n1)c(C)nn2-c1cccc(C)c1 under Potency: inconclusive: 16.4 µM [activator, partial curve, poor fit]
# Entry for CCOC(=O)C(Sc1nn(C)c(=S)s1)C(C)=O (centres undefined) under Potency: inconclusive: 23.1 µM [falling, single point]
# Entry for O=C(/C=C/c1ccc(Cl)cc1Cl)NCc1ccncc1 under Potency: inconclusive: 18.4 µM [falling, single point]

# (next part)

row,SMILES,Potency
1,C(=N\Nc1ccc2ccccc2n1)/c1ccc2c(c1)OCCO2,"inconclusive: 18.4 µM [falling, single point]"
2,COc1ccc2c(c1)c1c(c(=O)n(-c3ccccc3C)c(=O)n1CC(N)=O)n2C,inactive
3,CC(C)(C)OC(=O)N1CCCN(C(=O)Nc2ccc(C(F)(F)F)cc2)CC1,"inconclusive: 32.6 µM [falling, single point]"
4,COc1ccccc1/C=N/NC(=O)NC12CC3CC(CC(C3)C1)C2,"inconclusive: 13 µM [activator, partial curve, poor fit]"
5,O=c1oc2ccccc2n1CSc1nc2ccccc2s1,"inconclusive: 2.06 µM [activator, full curve]"
6,CN(CC(=O)Nc1ccccc1Cl)C(=O)c1ccc(Cl)c(S(=O)(=O)N2CCCCCC2)c1,"inconclusive: 18.4 µM [falling, single point]"
7,Cc1ccc(S(=O)(=O)Nc2cc3c(C(=O)OCc4ccccc4)c(C)oc3c3ccccc23)c(C)c1,inactive
8,Clc1ccc(CSc2ccc(-c3ccccn3)nn2)cc1,"inconclusive: 29.1 µM [falling, single point]"
9,Cc1ccc(NS(=O)(=O)c2cccc(C(=O)O)c2)cc1C,"inconclusive: 2.06 µM [activator, partial curve, poor fit]"
10,O=C(O)c1ccccc1NC(=O)c1cc(-c2ccccc2)nc2ccccc12,"inconclusive: 20.6 µM [falling, single point]"
11,CCCCOc1ccc(C2CCC(C(C)=O)C(C)C2)cc1 (centres undefined),"inconclusive: 2.91 µM [falling, full curve]"
12,CCn1c(CC(=O)Nc2ccccc2F)nnc1SCC(=O)NC1CCCCC1,"inconclusive: 10.3 µM [falling, partial curve, poor fit]"
13,COc1ccc(N2C(=O)c3ccccc3C2=O)cc1,"inconclusive: 25.9 µM [activator, single point]"
14,Cc1ccc(S(=O)(=O)NCc2ccc(C(=O)N3CCN(c4ccccn4)CC3)cc2)cc1,inactive
15,Cc1ccccc1NC(=O)c1ccc(NS(=O)(=O)c2cc(C(C)(C)C)cc(C)c2C)cc1,"inconclusive: 18.4 µM [falling, single point]"
16,O=C(COc1cccc(Oc2ccccc2)c1)Nc1ccc(SC(F)F)cc1,"inconclusive: 29.1 µM [falling, single point]"
17,C/C(=N\NC(=O)OC(C)(C)C)c1ccc[nH]1,"inconclusive: 1.46 µM [activator, partial curve, poor fit]"
18,COc1ccc(Cn2c(-c3ccco3)nc3oc4cc(OC)ccc4c(=O)c3c2=O)cc1,"inconclusive: 2.06 µM [activator, full curve, poor fit]"
19,Cc1ccc(-c2nc(-c3ccncc3)no2)cc1Cl,"inconclusive: 11.6 µM [activator, partial curve]"
20,CCN(CCNC(=O)CCCn1nc(C)n2c(cc3sccc32)c1=O)c1ccccc1,"inconclusive: 29.1 µM [falling, single point]"
21,COc1ccc(C(=O)Oc2ccc3c(C)cc(=O)oc3c2C(C)=O)cc1,inactive
22,CCOCC(=O)Nc1c(C(=O)Nc2ccc3c(c2)OCCO3)oc2ccccc12,"inconclusive: 0.517 µM [activator, full curve, poor fit]"

row,SMILES,Potency
1,O=[N+]([O-])c1ccc(NN=Cc2ccc3c(c2)OCO3)nc1,"inconclusive: 29.1 µM [activator, single point]"
2,COc1ccc2oc(=O)c(-c3nnc(NCc4ccco4)s3)cc2c1,"inconclusive: 32.6 µM [falling, single point]"
3,COc1ccc(CC(=O)N2CCC3(CC2)NCCc2[nH]cnc23)cc1,"inconclusive: 23.1 µM [activator, single point]"
4,C[C@H]1CN(C2CCCCC2)C(=O)[C@@H]1CC(=O)NCc1ccccc1,inactive
5,C[C@H](CO)N1C[C@H](C)[C@H](CN(C)C(=O)Nc2ccc(F)cc2)Oc2c(NC(=O)c3ccc(-c4nccs4)cc3)cccc2C1=O,"inconclusive: 14.6 µM [falling, partial curve, poor fit]"
6,Cn1c(-c2ccco2)nc2cc3ccccc3cc21,"inconclusive: 29.1 µM [falling, single point]"
7,COc1ccc(-c2nc(CSCC(=O)NCCC3=CCCCC3)c(C)o2)cc1OC,inactive
8,Cc1cc2occ(CC(=O)NCc3cccs3)c2cc1C(C)C,inactive
9,CCOC(=O)N1CCC(N(CCN(C)C)C(=S)Nc2cc(Cl)ccc2C)CC1,"inconclusive: 29.1 µM [falling, single point]"
10,O=C(/C=C/Nc1cccc(C(F)(F)F)c1)c1ccco1,"inconclusive: 16.4 µM [activator, partial curve]"
11,Cc1c(C(=O)OCc2ccccc2)[nH]c2c1C(=O)CC(c1ccc(N(C)C)cc1)C2 (centres undefined),"inconclusive: 0.461 µM [falling, partial curve]"
12,CCc1ccc(C(=O)CCC2CCCCC2=O)cc1 (centres undefined),"inconclusive: 10.3 µM [activator, partial curve]"
13,Cc1ccc(C(=O)NCc2ccncc2)cc1S(=O)(=O)N1CCCCC1,"inconclusive: 16.4 µM [falling, partial curve, poor fit]"
14,O=C(O)c1cccc(N/N=C/c2sc(N3CCOCC3)nc2-c2ccccc2)c1,"inconclusive: 0.0731 µM [activator, full curve]"
15,CCOC(=O)c1c(-c2ccccc2)csc1NC(=O)C1CCCO1 (centres undefined),"inconclusive: 32.6 µM [falling, single point]"
16,S=C(Nc1cccc(Cl)c1)N1CCN(c2ccccn2)CC1,"inconclusive: 16.4 µM [falling, single point]"
17,COc1ccc(-c2onc(C)c2C)cc1S(=O)(=O)N1CCc2ccccc21,active: 18.4 µM
18,Cc1noc(C)c1S(=O)(=O)Nc1ccc(C(=O)Nc2ccc(C(C)C)cc2)cc1,inactive
19,CCC1Cc2c(nc(N)c3c(N)nc(N4CCCCC4)c(C#N)c23)O1 (centres undefined),"inconclusive: 9.2 µM [falling, partial curve, poor fit]"
20,CC(=O)c1ccc(N=Nc2ccc(N)cc2)cc1,"inconclusive: 3.66 µM [falling, single point]"
